{"source": "PubChem BioAssay AID686943 (Drosophila RNAi Screening Center, 2013)", "purpose": "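Fly genes whose loss alters ERK activation after insulin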 (primary screen)", "cells": "Drosophila S2R+ haemocyte-like cells expressing YFP-tagged ERK (Rolled)", "reagent": "long dsRNA against Drosophila genes", "challenge": "insulin stimulation versus unstimulated cells; dose and duration not given", "measured": "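Per-plate z-scores of phospho-ERK immunostaining normalised to YFP-tagged ERK, measured with and without insulin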", "scale": "replicate 1, z-score of dpERK with insulin: higher = more active ERK per ERK-YFP after insulin", "note": "The deposit covers about 23,000 reagents; this is an unselected part of those that have a named target and a result. 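Extra replicates exist only for a retested subset of genes; insulin dose and duration not given; both raised and lowered dpERK matter.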 Reagents against one gene are numbered here. A plus sign joins genes that one reagent is predicted to hit. Further read-outs or replicates are left out here. The record does not give: the amount of reagent, the time to read-out."}
{"gene knocked down": "CG5989", "reagent": 1, "replicate 1, z-score of dpERK with insulin": 0.56}
{"gene knocked down": "CG42568 + DnaJ-60", "reagent": 1, "replicate 1, z-score of dpERK with insulin": -1.25}
{"gene knocked down": "CG42568 + DnaJ-60", "reagent": 2, "replicate 1, z-score of dpERK with insulin": 0.12}
{"gene knocked down": "CG13630", "reagent": 1, "replicate 1, z-score of dpERK with insulin": -0.41}
{"gene knocked down": "CG13287", "reagent": 1, "replicate 1, z-score of dpERK with insulin": -1.26}
{"gene knocked down": "Jwa", "reagent": 1, "replicate 1, z-score of dpERK with insulin": -0.13}
{"gene knocked down": "PTP-ER (Protein tyrosine phosphatase-ERK/Enhancer of Ras1)", "reagent": 1, "replicate 1, z-score of dpERK with insulin": 0.86}
{"gene knocked down": "Atg6 (Autophagy-related 6)", "reagent": 1, "replicate 1, z-score of dpERK with insulin": -0.52}
{"gene knocked down": "CG18518", "reagent": 1, "replicate 1, z-score of dpERK with insulin": -0.2}
{"gene knocked down": "Dus4 (Dihydrouridine synthase 4)", "reagent": 1, "replicate 1, z-score of dpERK with insulin": -0.34}
{"gene knocked down": "Prosbeta4R1 (Proteasome beta4 subunit-related 1)", "reagent": 1, "replicate 1, z-score of dpERK with insulin": -0.95}
{"gene knocked down": "mthl3 (methuselah-like 3)", "reagent": 1, "replicate 1, z-score of dpERK with insulin": -0.5}
{"gene knocked down": "Tbca (Tubulin binding cofactor A)", "reagent": 1, "replicate 1, z-score of dpERK with insulin": -1.99}
{"gene knocked down": "NdufV3 (NADH:ubiquinone oxidoreductase subunit V3)", "reagent": 1, "replicate 1, z-score of dpERK with insulin": 0.61}

Next part, starting with the last 2 of the part before.
{"gene knocked down": "Tbca (Tubulin binding cofactor A)", "reagent": 1, "replicate 1, z-score of dpERK with insulin": -1.99}
{"gene knocked down": "NdufV3 (NADH:ubiquinone oxidoreductase subunit V3)", "reagent": 1, "replicate 1, z-score of dpERK with insulin": 0.61}
{"gene knocked down": "CG9518", "reagent": 1, "replicate 1, z-score of dpERK with insulin": 0}
{"gene knocked down": "CG14691", "reagent": 1, "replicate 1, z-score of dpERK with insulin": -0.22}
{"gene knocked down": "CG1946", "reagent": 1, "replicate 1, z-score of dpERK with insulin": 0.11}
{"gene knocked down": "CG30427", "reagent": 1, "replicate 1, z-score of dpERK with insulin": 0.03}
{"gene knocked down": "CG30427", "reagent": 2, "replicate 1, z-score of dpERK with insulin": 0.49}
{"gene knocked down": "CG30427", "reagent": 3, "replicate 1, z-score of dpERK with insulin": -1.8}
{"gene knocked down": "Socs44A (Suppressor of Cytokine Signaling at 44A)", "reagent": 1, "replicate 1, z-score of dpERK with insulin": -0.04}
